Results reported in PubChem BioAssay AID330 (DTP/NCI, 2004).
The list is a part of this screen's results and no random one: it is rich in T/C values a quarter to a half above the control, in often repeated tests (any T/C) and in doses without a T/C. Other doses and runs of a compound stand elsewhere. T/C: endpoint of the treated group in % of that of the vehicle group. Some doses have a count of surviving animals in place of a T/C: the source holds a T/C of zero for them, seemingly a mark for toxic or unscored doses. Some doses without a T/C left all or most animals alive at the check, yet need not have been tolerated: the source hardly ever lists a survival T/C far under the control, and the zero likely stands for such cases as well. Counts of survivors are from the toxicity check (mostly the fifth day) where no day follows; animals may have died later. Schedule codes are those of the source, read here as Q, the interval in days (D) or hours (H), X, the number of doses. Some doses were run more than once; the results are listed from low to high. Signs of the kind (2×) say how often a value occurs here. For survival time, the PubChem record calls one and a half times the control and up active, and a quarter to a half above the control has no call in these data; cut-offs in other NCI protocols can differ.

Test system: P388 leukemia ip, CD2F1 mice, survival T/C
Experiment: NCI In Vivo Anticancer Drug Screen. Data for tumor model P388 Leukemia (intraperitoneal) in CD2F1 (CDF1) mice
Conditions: T/C endpoint: median survival time, higher T/C = longer survival
[1] = dose: 100.0 mg/kg/injection, schedule: Q01DX009 (ip), vehicle: saline
[2] = dose: 200.0 mg/kg/injection, schedule: Q01DX009 (ip), vehicle: saline
[3] = dose: 100.0 mg/kg/injection, schedule: Q01DX009 (ip), vehicle: saline with Tween-80
[4] = dose: 200.0 mg/kg/injection, schedule: Q04DX003 (ip), vehicle: saline with Tween-80
[5] = dose: 400.0 mg/kg/injection, schedule: Q04DX003 (ip), vehicle: saline with Tween-80
[6] = dose: 120.0 mg/kg/injection, schedule: Q01DX005 (ip), vehicle: saline with Tween-80
[7] = dose: 240.0 mg/kg/injection, schedule: Q01DX005 (ip), vehicle: saline with Tween-80

For `CC(C)N=C(c1ccccc1)N1CCCCC1`, the survivor count (dose: 50.0 mg/kg/injection, schedule: Q01DX009 (ip), vehicle: saline) was 0 of 6 and 3 of 6, the survivor count [1] was 0 of 6 and the survivor count [2] was 0 of 6.

In the case of `CCCC1CN2CCc3cc(OC)c(OC)cc3C2C/C1=C/C(=O)OCC` (stereo not given), the survivor count [3] is reported as 6 of 6.

With `NC(=S)c1nn(C2OC(CO)C(O)C2O)c2ncnc(N)c12` (stereo not given) the T/C (dose: 1.9 mg/kg/injection, schedule: Q01DX009 (ip), vehicle: saline) was 135 % of control, the T/C (dose: 3.0 mg/kg/injection, schedule: Q01DX009 (ip), vehicle: saline) was 136 % of control and the T/C (dose: 4.5 mg/kg/injection, schedule: Q01DX009 (ip), vehicle: saline) was 137 % of control.

`COc1cccc2[se]c(C(=O)O)cc12` was tested, and the survivor count [2] was 6 of 6.

With `O=C(O)CCCCCCCCCc1ccccc1` the survivor count [1] was 6 of 6 and the survivor count [2] was 6 of 6.

For `O=[n+]1ccn([O-])c2ccccc21.[Mn].[O-][Cl+3]([O-])([O-])O`, the T/C [4] was 134 % of control and the survivor count [5] was 0 of 6.

With `CC(=O)SCC(C)CCl` (stereo not given) the survivor count [5] was 5 of 6.

For `CC(O)CN=Cc1ccccc1[O-].CC(O)CN=Cc1ccccc1[O-].[Cu+2]` (stereo not given), the survivor count [6] was 3 of 6 and the survivor count [7] was 0 of 6.

With `O=Cc1c[nH]c2ccc(NC(=O)OCc3ccccc3)cc12` the survivor count (dose: 200.0 mg/kg/injection, schedule: Q01DX009 (ip), vehicle: saline with Tween-80) was 6 of 6.

`O=C(O)C[N-]CC(=O)O.OO.[O]=[V]` was tested, and the survivor count (dose: 60.0 mg/kg/injection, schedule: Q01DX005 (ip), vehicle: saline with Tween-80) was 0 of 6, the survivor count [6] was 0 of 6 and the survivor count [7] was 0 of 6.

With `CC(C)Cn1cnc2c(=S)nc(N)[nH]c21` the T/C [4] was 131 % of control and the T/C [5] was 145 % of control.

In the case of `CC1(C)N=C(N)N=C(N)N1c1cccc(CNC(=O)Nc2cccc(S(=O)(=O)F)c2)c1`, the survivor count (dose: 44.0 mg/kg/injection, schedule: Q01DX009 (ip), vehicle: saline with Tween-80) is reported as 6 of 6, the survivor count (dose: 67.0 mg/kg/injection, schedule: Q01DX009 (ip), vehicle: saline with Tween-80) is reported as 6 of 6 and the survivor count [3] is reported as 6 of 6. For the same compound, the survivor count [1] was 2 of 6, the survivor count (dose: 150.0 mg/kg/injection, schedule: Q01DX009 (ip), vehicle: saline with Tween-80) was 3 of 6 and the survivor count [2] was 0 of 6.

With `CN(C)c1ccc(C(Cl)[O][Sn]([Cl])([c]2ccccc2)[c]2ccccc2)cc1.[CH3][Sn]([CH3])([Cl])[Cl]` (stereo not given) the T/C (dose: 1.56 mg/kg/injection, schedule: Q01DX005 (ip), vehicle: saline with Tween-80) was 129 % of control, the T/C (dose: 3.12 mg/kg/injection, schedule: Q01DX005 (ip), vehicle: saline with Tween-80) was 141 % of control and the T/C (dose: 6.25 mg/kg/injection, schedule: Q01DX005 (ip), vehicle: saline with Tween-80, evaluated on day 20) was 148 % of control. The T/C (dose: 6.25 mg/kg/injection, schedule: Q01DX005 (ip), vehicle: saline with Tween-80, evaluated on day 30) was 129 % of control, the survivor count (dose: 12.5 mg/kg/injection, schedule: Q01DX005 (ip), vehicle: saline with Tween-80) was 0 of 6 (2×) and 1 of 6 and the survivor count (dose: 50.0 mg/kg/injection, schedule: Q01DX005 (ip), vehicle: saline with Tween-80) was 0 of 6. For the same compound, the survivor count (dose: 100.0 mg/kg/injection, schedule: Q01DX005 (ip), vehicle: saline with Tween-80) was 0 of 6 and the survivor count (dose: 200.0 mg/kg/injection, schedule: Q01DX005 (ip), vehicle: saline with Tween-80) was 0 of 6.
